Assay results reported in the supplement of paper PMC10060354, “Discovery of a small molecule ligand of FRS2 that inhibits invasion and tumor growth” (Cellular Oncology, 2022).

By UniProt entry, the sequences of proteins in these tests, tags left out. Where a name states a change or a piece, a line headed by the entry shows the natural chain unless it says otherwise.
UniProt P43243: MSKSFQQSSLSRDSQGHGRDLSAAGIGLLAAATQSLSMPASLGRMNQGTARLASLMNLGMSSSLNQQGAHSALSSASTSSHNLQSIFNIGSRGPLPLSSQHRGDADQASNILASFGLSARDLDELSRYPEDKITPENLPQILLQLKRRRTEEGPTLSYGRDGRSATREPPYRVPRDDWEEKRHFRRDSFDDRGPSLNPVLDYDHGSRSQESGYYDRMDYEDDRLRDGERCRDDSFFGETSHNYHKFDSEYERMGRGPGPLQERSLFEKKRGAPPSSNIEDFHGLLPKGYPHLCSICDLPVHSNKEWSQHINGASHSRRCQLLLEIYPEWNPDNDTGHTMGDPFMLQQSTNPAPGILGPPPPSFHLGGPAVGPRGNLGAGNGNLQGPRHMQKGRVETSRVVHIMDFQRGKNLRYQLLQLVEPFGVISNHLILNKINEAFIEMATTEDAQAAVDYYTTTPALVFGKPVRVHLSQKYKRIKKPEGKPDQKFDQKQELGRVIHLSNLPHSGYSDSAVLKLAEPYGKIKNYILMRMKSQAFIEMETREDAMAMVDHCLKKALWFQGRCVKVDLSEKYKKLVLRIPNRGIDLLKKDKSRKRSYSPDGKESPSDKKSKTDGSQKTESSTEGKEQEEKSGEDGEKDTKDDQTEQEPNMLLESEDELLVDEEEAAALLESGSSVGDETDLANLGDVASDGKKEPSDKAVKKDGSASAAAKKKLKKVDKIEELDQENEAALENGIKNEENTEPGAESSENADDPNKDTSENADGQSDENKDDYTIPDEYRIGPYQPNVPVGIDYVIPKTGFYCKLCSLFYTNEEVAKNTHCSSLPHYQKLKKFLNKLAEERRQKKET
UniProt Q969R5, whole entry: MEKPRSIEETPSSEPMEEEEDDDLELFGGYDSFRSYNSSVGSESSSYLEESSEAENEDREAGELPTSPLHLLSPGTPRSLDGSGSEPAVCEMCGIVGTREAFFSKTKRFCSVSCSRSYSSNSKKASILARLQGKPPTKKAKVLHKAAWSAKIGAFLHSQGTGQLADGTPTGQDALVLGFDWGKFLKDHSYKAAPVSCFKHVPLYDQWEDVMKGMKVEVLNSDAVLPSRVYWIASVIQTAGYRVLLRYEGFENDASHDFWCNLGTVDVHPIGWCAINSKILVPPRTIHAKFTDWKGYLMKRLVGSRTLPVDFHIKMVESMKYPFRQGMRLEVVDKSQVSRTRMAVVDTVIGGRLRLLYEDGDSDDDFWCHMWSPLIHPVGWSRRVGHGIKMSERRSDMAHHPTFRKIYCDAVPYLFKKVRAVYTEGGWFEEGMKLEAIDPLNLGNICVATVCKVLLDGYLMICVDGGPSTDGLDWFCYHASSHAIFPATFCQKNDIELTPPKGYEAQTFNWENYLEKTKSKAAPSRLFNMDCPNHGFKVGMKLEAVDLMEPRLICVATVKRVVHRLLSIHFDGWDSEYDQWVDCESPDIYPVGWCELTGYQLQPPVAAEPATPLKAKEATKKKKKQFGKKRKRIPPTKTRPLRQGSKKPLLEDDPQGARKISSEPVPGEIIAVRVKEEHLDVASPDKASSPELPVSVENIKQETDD
UniProt Q86UU1: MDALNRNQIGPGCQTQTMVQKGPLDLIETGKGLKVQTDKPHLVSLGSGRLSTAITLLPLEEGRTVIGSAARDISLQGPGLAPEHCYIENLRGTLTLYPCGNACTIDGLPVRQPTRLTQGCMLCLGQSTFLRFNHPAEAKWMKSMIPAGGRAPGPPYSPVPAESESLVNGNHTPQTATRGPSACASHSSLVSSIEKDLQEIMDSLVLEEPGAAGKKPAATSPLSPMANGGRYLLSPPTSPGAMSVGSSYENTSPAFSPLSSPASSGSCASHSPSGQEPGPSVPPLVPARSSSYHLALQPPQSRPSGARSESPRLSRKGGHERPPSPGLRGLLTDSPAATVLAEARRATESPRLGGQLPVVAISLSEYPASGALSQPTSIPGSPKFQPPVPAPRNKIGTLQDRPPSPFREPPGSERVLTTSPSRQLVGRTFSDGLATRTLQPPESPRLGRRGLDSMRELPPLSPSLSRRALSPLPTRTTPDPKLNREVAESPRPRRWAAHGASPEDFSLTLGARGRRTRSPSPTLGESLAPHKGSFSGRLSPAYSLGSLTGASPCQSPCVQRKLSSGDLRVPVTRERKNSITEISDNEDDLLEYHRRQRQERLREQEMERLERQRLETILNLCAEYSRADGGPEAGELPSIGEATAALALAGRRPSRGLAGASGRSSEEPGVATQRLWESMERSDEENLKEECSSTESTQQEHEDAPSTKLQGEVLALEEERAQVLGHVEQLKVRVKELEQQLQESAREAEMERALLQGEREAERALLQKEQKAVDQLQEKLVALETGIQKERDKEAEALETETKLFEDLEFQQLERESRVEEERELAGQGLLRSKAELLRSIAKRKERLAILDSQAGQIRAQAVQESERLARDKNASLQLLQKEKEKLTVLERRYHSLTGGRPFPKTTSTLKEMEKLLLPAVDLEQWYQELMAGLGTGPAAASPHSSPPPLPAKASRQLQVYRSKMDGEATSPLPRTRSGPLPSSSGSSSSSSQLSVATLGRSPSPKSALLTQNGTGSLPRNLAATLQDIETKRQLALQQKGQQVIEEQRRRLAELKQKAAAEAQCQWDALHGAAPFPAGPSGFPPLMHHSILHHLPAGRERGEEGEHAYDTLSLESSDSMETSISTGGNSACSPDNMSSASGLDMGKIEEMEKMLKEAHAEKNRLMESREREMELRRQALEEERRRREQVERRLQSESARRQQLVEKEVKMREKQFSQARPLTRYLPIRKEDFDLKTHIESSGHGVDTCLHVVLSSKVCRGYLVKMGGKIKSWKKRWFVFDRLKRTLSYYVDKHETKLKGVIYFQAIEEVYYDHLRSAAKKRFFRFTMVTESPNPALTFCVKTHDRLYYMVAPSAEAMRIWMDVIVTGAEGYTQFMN
UniProt P54920: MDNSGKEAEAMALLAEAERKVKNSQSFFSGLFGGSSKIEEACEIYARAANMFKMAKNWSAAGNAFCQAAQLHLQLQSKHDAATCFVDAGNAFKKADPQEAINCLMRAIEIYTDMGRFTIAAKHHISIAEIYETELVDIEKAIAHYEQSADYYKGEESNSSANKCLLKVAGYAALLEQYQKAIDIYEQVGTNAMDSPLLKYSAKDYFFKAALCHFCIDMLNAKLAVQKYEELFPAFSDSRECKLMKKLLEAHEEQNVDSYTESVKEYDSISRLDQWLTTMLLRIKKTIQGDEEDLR
UniProt P10809, whole entry: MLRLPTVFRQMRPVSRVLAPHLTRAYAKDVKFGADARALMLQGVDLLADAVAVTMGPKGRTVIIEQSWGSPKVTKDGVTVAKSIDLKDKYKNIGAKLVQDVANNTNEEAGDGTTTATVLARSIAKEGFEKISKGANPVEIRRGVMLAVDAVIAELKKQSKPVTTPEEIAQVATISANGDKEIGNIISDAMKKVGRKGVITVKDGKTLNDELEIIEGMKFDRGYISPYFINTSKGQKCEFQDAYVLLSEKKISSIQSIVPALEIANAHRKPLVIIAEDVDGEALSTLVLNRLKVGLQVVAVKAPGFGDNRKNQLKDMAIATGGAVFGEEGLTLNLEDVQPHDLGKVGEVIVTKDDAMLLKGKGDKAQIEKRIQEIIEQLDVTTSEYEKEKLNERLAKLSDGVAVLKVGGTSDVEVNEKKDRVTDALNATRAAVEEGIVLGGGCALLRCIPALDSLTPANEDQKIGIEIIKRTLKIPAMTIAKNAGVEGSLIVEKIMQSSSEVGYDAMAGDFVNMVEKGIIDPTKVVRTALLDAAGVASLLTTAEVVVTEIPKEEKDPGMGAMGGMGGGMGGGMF
UniProt Q7Z7K6: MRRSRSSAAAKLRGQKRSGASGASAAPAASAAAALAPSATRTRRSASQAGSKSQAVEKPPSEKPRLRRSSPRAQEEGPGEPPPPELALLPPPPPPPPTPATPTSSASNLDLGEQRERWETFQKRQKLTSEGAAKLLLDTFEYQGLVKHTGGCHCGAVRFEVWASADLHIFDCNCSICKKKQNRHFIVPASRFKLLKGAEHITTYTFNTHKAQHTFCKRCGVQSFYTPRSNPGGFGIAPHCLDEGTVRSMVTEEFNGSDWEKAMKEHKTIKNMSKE
UniProt Q9NS87: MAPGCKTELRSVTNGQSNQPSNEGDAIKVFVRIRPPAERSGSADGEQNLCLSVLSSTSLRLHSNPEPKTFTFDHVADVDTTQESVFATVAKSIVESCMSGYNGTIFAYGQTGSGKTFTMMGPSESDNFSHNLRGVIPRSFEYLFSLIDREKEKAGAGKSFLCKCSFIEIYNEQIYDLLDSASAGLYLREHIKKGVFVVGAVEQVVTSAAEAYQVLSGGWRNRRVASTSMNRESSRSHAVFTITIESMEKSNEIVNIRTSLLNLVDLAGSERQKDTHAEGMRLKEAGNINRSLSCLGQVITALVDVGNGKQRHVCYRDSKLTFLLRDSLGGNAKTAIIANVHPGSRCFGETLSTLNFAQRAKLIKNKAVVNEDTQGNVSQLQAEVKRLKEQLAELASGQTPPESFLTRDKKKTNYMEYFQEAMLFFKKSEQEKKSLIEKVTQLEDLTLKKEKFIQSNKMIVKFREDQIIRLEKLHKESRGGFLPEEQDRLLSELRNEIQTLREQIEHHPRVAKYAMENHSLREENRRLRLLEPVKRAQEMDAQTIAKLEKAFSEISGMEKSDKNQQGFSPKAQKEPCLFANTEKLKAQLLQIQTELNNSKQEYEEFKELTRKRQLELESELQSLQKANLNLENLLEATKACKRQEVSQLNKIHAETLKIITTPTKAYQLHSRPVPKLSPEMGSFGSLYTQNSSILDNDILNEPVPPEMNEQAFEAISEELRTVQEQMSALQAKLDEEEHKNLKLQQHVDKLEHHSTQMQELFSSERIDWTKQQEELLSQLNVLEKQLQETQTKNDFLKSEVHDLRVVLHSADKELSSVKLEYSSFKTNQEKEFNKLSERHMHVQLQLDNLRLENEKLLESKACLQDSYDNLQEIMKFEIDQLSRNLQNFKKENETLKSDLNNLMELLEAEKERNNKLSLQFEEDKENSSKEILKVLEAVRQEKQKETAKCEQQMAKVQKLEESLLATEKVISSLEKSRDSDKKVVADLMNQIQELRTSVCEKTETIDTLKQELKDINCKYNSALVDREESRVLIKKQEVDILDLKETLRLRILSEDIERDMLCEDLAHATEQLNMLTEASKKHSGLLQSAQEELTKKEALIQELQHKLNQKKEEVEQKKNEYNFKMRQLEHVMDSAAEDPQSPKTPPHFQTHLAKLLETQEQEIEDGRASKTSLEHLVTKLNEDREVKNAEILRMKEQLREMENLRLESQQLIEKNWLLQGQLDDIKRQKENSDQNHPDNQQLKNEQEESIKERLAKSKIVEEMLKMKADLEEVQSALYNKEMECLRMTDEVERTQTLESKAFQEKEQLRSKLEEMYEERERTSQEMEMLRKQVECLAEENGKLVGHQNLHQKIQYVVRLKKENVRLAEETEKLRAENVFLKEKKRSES
UniProt Q8N9N8: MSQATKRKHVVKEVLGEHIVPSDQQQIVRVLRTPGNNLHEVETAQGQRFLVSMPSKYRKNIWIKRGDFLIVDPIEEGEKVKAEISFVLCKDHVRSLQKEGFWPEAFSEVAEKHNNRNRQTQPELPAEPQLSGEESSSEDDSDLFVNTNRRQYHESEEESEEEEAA
UniProt P80217: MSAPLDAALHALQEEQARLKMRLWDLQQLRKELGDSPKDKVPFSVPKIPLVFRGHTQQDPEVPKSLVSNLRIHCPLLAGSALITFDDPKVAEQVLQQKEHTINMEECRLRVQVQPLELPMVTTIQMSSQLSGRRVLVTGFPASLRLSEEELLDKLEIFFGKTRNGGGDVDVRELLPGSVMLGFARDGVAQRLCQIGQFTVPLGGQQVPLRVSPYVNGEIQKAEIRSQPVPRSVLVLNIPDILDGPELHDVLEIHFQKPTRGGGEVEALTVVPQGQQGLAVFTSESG
UniProt P24311, whole entry: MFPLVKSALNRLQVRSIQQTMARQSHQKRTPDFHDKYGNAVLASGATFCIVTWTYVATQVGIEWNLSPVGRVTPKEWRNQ
UniProt Q96L46: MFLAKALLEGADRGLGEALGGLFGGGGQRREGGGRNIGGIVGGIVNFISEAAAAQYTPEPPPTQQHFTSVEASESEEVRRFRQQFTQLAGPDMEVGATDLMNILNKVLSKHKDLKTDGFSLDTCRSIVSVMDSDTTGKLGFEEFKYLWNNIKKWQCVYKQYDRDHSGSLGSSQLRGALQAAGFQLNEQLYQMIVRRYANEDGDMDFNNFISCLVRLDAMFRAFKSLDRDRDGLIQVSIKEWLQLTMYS
UniProt P40938, whole entry: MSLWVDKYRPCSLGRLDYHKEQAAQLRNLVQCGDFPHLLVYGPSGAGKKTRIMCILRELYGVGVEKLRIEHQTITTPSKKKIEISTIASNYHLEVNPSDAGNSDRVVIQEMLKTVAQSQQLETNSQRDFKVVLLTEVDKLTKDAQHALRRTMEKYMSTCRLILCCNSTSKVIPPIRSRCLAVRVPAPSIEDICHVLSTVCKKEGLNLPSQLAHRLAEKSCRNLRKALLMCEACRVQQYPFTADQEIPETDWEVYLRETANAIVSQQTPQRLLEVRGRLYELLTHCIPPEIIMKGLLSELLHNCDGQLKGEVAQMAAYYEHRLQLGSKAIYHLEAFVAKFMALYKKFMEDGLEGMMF

Compound: [O-][N+](C(C1=C(C(O)=C2)NC(C(C=C3)=CC=C3Cl)C4C1C=CC4)=C2Cl)=O
Assay: melting temperature shift (compound 7 minus DMSO); higher = compound stabilises the protein
Settings: 10 µM
Method: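 Thermal proteome profiling (TMT mass spectrometry) in intact DAOY medulloblastoma cells or DAOY lysates treated with 10 µM compound 7 or DMSO, heated at 10 temperatures from 40.5 to 73.8 °C for 3 min. Melting curves were fitted with the Bioconductor TPP package, and the melting point difference between compound and vehicle is reported per protein (single curve per condition).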

[1] = system: DAOY cell lysate, treatment time: 20 min, 4 °C
[2] = system: intact DAOY cells, treatment time: 90 min, 37 °C

Row | Target | melting temperature shift [1] [°C] | melting temperature shift [2] [°C]
1 | GATAD2B (UniProt Q8WXI9) | 0.814 | -0.216
2 | C6ORF106 (UniProt Q9H6K1) |  | 0.436
3 | UniProt O43257 |  | -0.603
4 | ARHGAP12 (UniProt Q8IWW6) | -1.31 | 
5 | C12ORF10 (UniProt Q9HB07) | -1.15 | 0.342
6 | RPS18 (UniProt P62269) | -0.331 | -1.01
7 | UniProt O75093 | 0.0223 | -0.374
8 | UniProt A6NEN9 | -4.51 | 
9 | ACAP2 (UniProt Q15057) | 0.524 | -0.812
10 | RBM28 (UniProt Q9NW13) | 0.881 | 1.11
11 | LPGAT1 (UniProt Q92604) | 0.737 | 0.317
12 | SLC35E1 (UniProt Q96K37) | -1.26 | -2.51
13 | UniProt P18583 | 0.853 | 7.34
14 | CEPT1 (UniProt Q9Y6K0) | 1.89 | -1.85
15 | MATR3 (UniProt P43243) | 0.817 | 0.369
16 | LRBA (UniProt P50851) | -1.03 | -0.526
17 | PCCB (UniProt P05166) | 1.87 | -0.679
18 | TGS1 (UniProt Q96RS0) | -1.69 | -1.91
19 | STK33 (UniProt Q9BYT3) | -1 | 
20 | CNOT1 (UniProt A5YKK6) | -0.496 | -0.832
21 | A0AVF1 | 0.614 | 
22 | WDR89 (UniProt Q96FK6) | -1.17 | 
23 | HEBP1 (UniProt Q9NRV9) | -1.28 | 1.36

Row | Target | melting temperature shift [1] [°C] | melting temperature shift [2] [°C]
24 | UniProt Q969R5 | 2.75 | 
25 | RPL35A (UniProt P18077) | 0.501 | -0.791
26 | PHLDB1 (UniProt Q86UU1) | 0.281 | -2.18
27 | NHP2 (UniProt Q9NX24) | 2.41 | 0.321
28 | DPH5 (UniProt Q9H2P9) | -0.327 | -0.387
29 | MRPL42 (UniProt Q9Y6G3) | 1.85 | 0.654
30 | THOC1 (UniProt Q96FV9) | 1.4 | 
31 | PALMD (UniProt Q9NP74) |  | -0.869
32 | UBFD1 (UniProt O14562) | -0.749 | -0.0202
33 | PARP1 (UniProt P09874) | 0.482 | -0.874
34 | NSRP1 (UniProt Q9H0G5) | -0.922 | -0.515
35 | UniProt Q9Y6M4 | -0.608 | 2.43
36 | PTTG1 (UniProt O95997) | -3.2 | 
37 | NAPA (UniProt P54920) | 0.63 | 0.352
38 | AKT3 (UniProt Q9Y243) |  | -0.84
39 | CWC22 (UniProt Q9HCG8) | -0.589 | 0.69
40 | TTF2 (UniProt Q9UNY4) | -0.427 | 0.457
41 | RBM33 (UniProt Q96EV2) | -1.76 | 
42 | NCBP1 (UniProt Q09161) | -0.845 | -0.168
43 | TXNRD2 (UniProt Q9NNW7) | 0.671 | 7.41
44 | UniProt Q9BQ13 | 0.566 | 2.48
45 | MRPS24 (UniProt Q96EL2) |  | 2
46 | UniProt Q8NG04 | -2.05 | 

Exported in CSV form: part of the list above
Row,Target,melting temperature shift [1] [°C],melting temperature shift [2] [°C]
6,RPS18 (UniProt P62269),-0.331,-1.01
7,UniProt O75093,0.0223,-0.374
8,UniProt A6NEN9,-4.51,
9,ACAP2 (UniProt Q15057),0.524,-0.812

(listing goes on)

Row | Target | melting temperature shift [1] [°C] | melting temperature shift [2] [°C]
47 | UniProt Q5JU69 |  | -0.636
48 | UniProt P40967 | 1.33 | 
49 | GNE (UniProt Q9Y223) | 0.0801 | -1.07
50 | FOXK2 (UniProt Q01167) | 1.81 | -0.582
51 | HSPH1 (UniProt Q92598) | -0.288 | 0.436
52 | HSPD1 (UniProt P10809) | 0.707 | -0.47
53 | ERCC2 (UniProt P18074) | -1.67 | 0.496
54 | UniProt Q6ZTI6 | 0.194 | -1.57
55 | FAM234B (UniProt A2RU67) |  | 6.48
56 | HEATR1 (UniProt Q9H583) | 0.211 | 0.388
57 | UniProt Q15700 |  | 0.0994
58 | UniProt Q02750 | -0.189 | -1.19
59 | UniProt Q06413 | 0.275 | 
60 | UniProt Q9NQW1 |  | -3.9
61 | ACAA1 (UniProt P09110) | 0.384 | -0.316
62 | ITGA5 (UniProt P08648) | 1.81 | 
63 | NAA40 (UniProt Q86UY6) | -0.423 | 0.596
64 | UniProt Q9P1Y5 | 2.45 | -2.94
65 | UniProt Q5VWX1 |  | 0.389
66 | UniProt Q8IVV7 | 0.699 | 0.09
67 | PRDX3 (UniProt P30048) | 1.22 | -0.858
68 | IFT27 (UniProt Q9BW83) | -0.577 | -0.0996
69 | CENPV (UniProt Q7Z7K6) | 1.02 | 0.072

Row | Target | melting temperature shift [1] [°C] | melting temperature shift [2] [°C]
70 | TCEB2 (UniProt Q15370) | -0.5 | 0.345
71 | VCP (UniProt P55072) | 0.53 | -0.244
72 | NFYA (UniProt P23511) | 0.03 | -0.407
73 | CD2BP2 (UniProt O95400) | -0.168 | 2.01
74 | YTHDC2 (UniProt Q9H6S0) | -0.773 | 
75 | KIF15 (UniProt Q9NS87) | -1.6 | -0.0155
76 | RIF1 (UniProt Q5UIP0) | -0.816 | -1.15
77 | UniProt Q9UP38 |  | -2.85
78 | CNOT11 (UniProt Q9UKZ1) |  | -1.16
79 | UniProt Q8N131 | 2.41 | 0.487
80 | PRKD2 (UniProt Q9BZL6) | 0.0239 | 
81 | AGFG1 (UniProt P52594) | -1.04 | -0.0377
82 | UniProt Q96CD2 | -1.75 | 
83 | EIF1AD (UniProt Q8N9N8) | -2.68 | 1.36
84 | PLK1 (UniProt P53350) | -0.142 | 0.78
85 | GMEB1 (UniProt Q9Y692) | -1.44 | 
86 | RABEP1 (UniProt Q15276) | -0.682 | 0.832
87 | QDPR (UniProt P09417) | -0.22 | 0.385
88 | RDH14 (UniProt Q9HBH5) | -1.03 | 0.103
89 | IPO8 (UniProt O15397) | -1.07 | -0.873
90 | PYM1 (UniProt Q9BRP8) | 1.27 | 
91 | CEBPZ (UniProt Q03701) | 0.202 | 
92 | UniProt Q99743 | 0.115 | 

Row | Target | melting temperature shift [1] [°C] | melting temperature shift [2] [°C]
93 | MID1 (UniProt O15344) | -2.18 | 0.399
94 | IFI35 (UniProt P80217) | -1.14 | 0.184
95 | RANBP6 (UniProt O60518) | -0.844 | 0.443
96 | POP7 (UniProt O75817) |  | -2.17
97 | COX7B (UniProt P24311) | 0.812 | 1.57
98 | FUT11 (UniProt Q495W5) | 1.27 | 
99 | CYB5R1 (UniProt Q9UHQ9) | 0.0983 | -0.0734
100 | CKS2 (UniProt P33552) | 0.262 | -0.0912
101 | PHGDH (UniProt O43175) | -1.11 | 0.888
102 | UniProt Q15013 | -0.718 | 
103 | PFKL (UniProt P17858) | -0.606 | -0.874
104 | NT5DC3 (UniProt Q86UY8) | 0.429 | -0.251
105 | PTGS2 (UniProt P35354) |  | -0.144
106 | SSB (UniProt P05455) | -0.12 | 0.0869
107 | TBL1XR1 (UniProt Q9BZK7) | -1.04 | 0.911
108 | HSPBP1 (UniProt Q9NZL4) | -0.839 | 0.601
109 | UniProt Q96L46 |  | 0.765
110 | PPP1R13L (UniProt Q8WUF5) | -1.73 | -0.125
111 | INPP5A (UniProt Q14642) | 2.09 | 
112 | MDC1 (UniProt Q14676) | -1.4 | 1.95
113 | LAS1L (UniProt Q9Y4W2) | 0.222 | 
114 | SSR2 (UniProt P43308) | 1.86 | -0.802
115 | RFC3 (UniProt P40938) | -0.566 | -1.25

Two entries from above, as tab-separated lines:
Row	Target	melting temperature shift [1] [°C]	melting temperature shift [2] [°C]
112	MDC1 (UniProt Q14676)	-1.4	1.95
113	LAS1L (UniProt Q9Y4W2)	0.222	

Single values are uncertain, as repeats are few or missing.
